No constants are given. Whether binding was seen depends on the method and setting. A result given as binding can be weak or reduced; the word gives no strength.
Legend:
CLDN18.2 [1] = assay: flow cytometry on overexpressing cells (Fig. 1)
CLDN18.2 [2] = assay: flow cytometry titration and kinetics (Fig. 2, Table 1)
CLDN18.2 [3] = assay: flow cytometry on stably transfected CHO cells (cell pool)

Measured: binding

B1: CLDN-BC-P1022-hH1 (antibody, V domains shown)
VH: QVQLVQSGGGLVQPGGSLRLSCAASGFTFSSYEMNWVRQAPGKGLEWVAYITGSGRTMYYADSVKGRITISRDNAKNSLYLQMNSLRAEDTAVYYCARYWNYAGGMDVWGQGTLVTVSS
VL: DIQMTQSPSSVSASVGDRVTITCRASQGISSWLAWYQQKPGKAPKLLIYAASSLQSGVPSRFSGSGSGTDFTLTISSLQPEDFATYYCQQANSFPLTFGGGTKVEIK
binds: CLDN18.2 [1] | CLDN18.2 [2] | CLDN18.2 [3]

— CN117567612A
